Results published in patent US11000555B2, “Method for preparing a limax compound and therapeutic use thereof” (GUANGXI JIUFU BIOTECHNOLOGY CO., LTD, priority 2017, dated 2021).
Marks after values point to notes of the source that are not given here.

Key:
[1] = test system: mice; assay: Psychological dependence test: conditioned place preference test of mice
Description: A conditioned place preference box was composed of black and white cuboids (30 cm×15 cm×15 cm), a movable partition plate is arranged in the middle of the box body to divide the box into two cuboids of the same volume, and the rat and mice can freely move from one cuboid to another when the partition plate is removed. Inner surfaces of one cuboid of the box body except the glass panel is painted black, the bottom plate is made to be a rough surface by using a soft blanket, the other cuboid of the box body except the glass surface is painted white, the bottom plate is made to be a smooth surface, and the whole experimental box has visual and tactile cues.
Mice were tested for natural preference one day prior to dosing to eliminate mice with significant preference on one side of the box and to exclude the effects of unconditioned place preference on the experimental results.
Each group of animals was administered twice daily at an interval of 8 hours (8:00, 16:00). […] The partition plate of the preferred cuboid was removed, the mice were placed in the middle of the box one by one and observed for 15 minutes, and the duration of each of the mice staying in each cuboid was recorded on the basis of the positions of their heads.

[2] = test system: mice; assay: Physical dependence test: induced withdrawal test for the mice; details: sc morphine hydrochloride
Procedure: The daily doses were 25, 50, 75, 100, 125, 150 mg/kg according to the dose increasing principle, increased day by day, reached 150 mg/kg on day 6 which was adopted the same on day 7. The compound group was administered (ig) twice daily (8:00 am, 8:00 pm) at daily doses of 0.6, 1.2, 1.8, 2.4, 3.0, 3.6 g/kg. The dose increased every day from 0.6 g/kg to 3.6 g/kg on day 6 which was adopted the same on day 7. The negative control group was given (ig) the same volume of vegetable oil every day at the same time and for the same times as the compound group. On day 7, naloxone (8 mg/kg, ip) was given to each group of mice to induce withdrawal. The jump reaction within 30 min and weight change one hour before and after inducement were observed. Weight loss value=weight before inducement−weight after inducement.

## CN1CC[C@]23c4c5ccc(O)c4O[C@H]2[C@@H](O)C=C[C@H]3[C@H]1C5.Cl [Morphine, Morphine hydrochloride]
[1]; After administration, morphine 9 mg/kg sc, 6 days training, 15 min observation
  Duration of mice staying in companion box: 578.6 ± 136.83**^Δ s
[1]; Before administration, Morphine control group
  Duration of mice staying in companion box: 362.5 ± 67.51 s
[2]
  Behaviour of mice after administration: all the mice showed tail erecting reaction and excitatory movement
